Data from ChEMBL document CHEMBL1687827, “Profiling the Aspergillus fumigatus proteome in response to caspofungin” (2011).
Further values from the same series stand in other lists.

Key:
Type in all cases: functional
[1] = system: Aspergillus fumigatus; test: Induction of change in ribosomal protein S9 gene expression in drug-susceptible Aspergillus fumigatus KU80 delta-akuB at 0.12 ug/ml after 24 hrs in YPD medium by microarray analysis relative to control
[2] = system: Aspergillus fumigatus; test: Induction of change in transaldolase protein level in iTRAQ114 labelled secreted fraction of drug-susceptible Aspergillus fumigatus KU80 delta-akuB at 0.12 ug/ml after 24 hrs in YPD medium by MS (MS/MS) analysis relative to control
[3] = system: Aspergillus fumigatus; test: Induction of change in 60s ribosomal protein l2 protein level in iTRAQ114 labelled cell wall fraction of drug-susceptible Aspergillus fumigatus KU80 delta-akuB at 0.12 ug/ml after 24 hrs in YPD medium by MS (MS/MS) analysis relative to control
[4] = system: Aspergillus fumigatus; test: Induction of change in CipC-like antibiotic response protein, putative protein level in iTRAQ-118 labelled cell wall fraction of drug-resistant Aspergillus fumigatus EMFR-S678P at 0.12 ug/ml after 24 hrs in YPD medium by MS (MS/MS) analysis relative to control
[5] = system: Aspergillus fumigatus; test: Induction of change in ribosomal protein L35, putative protein level in iTRAQ114 labelled cell wall fraction of drug-susceptible Aspergillus fumigatus KU80 delta-akuB at 0.12 ug/ml after 24 hrs in YPD medium by MS (MS/MS) analysis relative to control
[6] = system: Aspergillus fumigatus; test: Induction of change in 60s ribosomal protein yl17-b protein level in iTRAQ114 labelled cell wall fraction of drug-susceptible Aspergillus fumigatus KU80 delta-akuB at 0.12 ug/ml after 24 hrs in YPD medium by MS (MS/MS) analysis relative to control
[7] = system: Aspergillus fumigatus; test: Induction of change in 60S ribosomal protein L19 protein level in iTRAQ-118 labelled cell wall fraction of drug-resistant Aspergillus fumigatus EMFR-S678P at 0.12 ug/ml after 24 hrs in YPD medium by MS (MS/MS) analysis relative to control
[8] = system: Aspergillus fumigatus; test: Induction of change in 60S ribosomal protein L9 b gene expression in drug-susceptible Aspergillus fumigatus KU80 delta-akuB at 0.12 ug/ml after 24 hrs in YPD medium by microarray analysis relative to control
[9] = system: Aspergillus fumigatus; test: Induction of change in citrate synthase Cit1, putative protein level in iTRAQ-116 labelled secreted fraction of drug-resistant Aspergillus fumigatus EMFR-S678P at 0.12 ug/ml after 48 hrs in YPD medium by MS (MS/MS) analysis relative to control
[10] = system: Aspergillus fumigatus; test: Induction of change in 14-3-3 family protein ArtA, putative protein level in iTRAQ-116 labelled secreted fraction of drug-resistant Aspergillus fumigatus EMFR-S678P at 0.12 ug/ml after 48 hrs in YPD medium by MS (MS/MS) analysis relative to control
[11] = system: Aspergillus fumigatus; test: Induction of change in ribosomal protein L16a protein level in iTRAQ114 labelled cell wall fraction of drug-susceptible Aspergillus fumigatus KU80 delta-akuB at 0.12 ug/ml after 24 hrs in YPD medium by MS (MS/MS) analysis relative to control
[12] = system: Aspergillus fumigatus; test: Induction of change in antioxidant protein LsfA gene expression in drug-susceptible Aspergillus fumigatus KU80 delta-akuB at 0.12 ug/ml after 48 hrs in YPD medium by microarray analysis relative to control
[13] = system: Aspergillus fumigatus; test: Induction of change in 60S ribosomal protein L19 protein level in iTRAQ-118 labelled cell wall fraction of drug-susceptible Aspergillus fumigatus KU80 delta-akuB at 0.12 ug/ml after 24 hrs in YPD medium by MS (MS/MS) analysis relative to control
[14] = system: Aspergillus fumigatus; test: Induction of change in GPI-anchored cell wall organization protein Ecm33 protein level in iTRAQ-116 labelled cell wall fraction of drug-resistant Aspergillus fumigatus EMFR-S678P at 0.12 ug/ml after 48 hrs in YPD medium by MS (MS/MS) analysis relative to control
[15] = system: Aspergillus fumigatus; test: Induction of change in cytochrome c oxidase subunit Va, putative protein level in iTRAQ-118 labelled cell wall fraction of drug-susceptible Aspergillus fumigatus KU80 delta-akuB at 0.12 ug/ml after 24 hrs in YPD medium by MS (MS/MS) analysis relative to control
[16] = system: Aspergillus fumigatus; test: Induction of change in ribosomal protein L16a gene expression in drug-susceptible Aspergillus fumigatus KU80 delta-akuB at 0.12 ug/ml after 24 hrs in YPD medium by microarray analysis relative to control
[17] = system: Aspergillus fumigatus; test: Induction of change in alanine aminotransferase, putative protein level in iTRAQ-116 labelled secreted fraction of drug-susceptible Aspergillus fumigatus KU80 delta-akuB at 0.12 ug/ml after 48 hrs in YPD medium by MS (MS/MS) analysis relative to control
[18] = system: Aspergillus fumigatus; test: Induction of change in plasma membrane H -ATPase protein level in iTRAQ-116 labelled cell wall fraction of drug-susceptible Aspergillus fumigatus KU80 delta-akuB at 0.12 ug/ml after 48 hrs in YPD medium by MS (MS/MS) analysis relative to control
[19] = system: Aspergillus fumigatus; test: Induction of change in 40S ribosomal protein S6 protein level in iTRAQ114 labelled cell wall fraction of drug-susceptible Aspergillus fumigatus KU80 delta-akuB at 0.12 ug/ml after 24 hrs in YPD medium by MS (MS/MS) analysis relative to control
[20] = system: Aspergillus fumigatus; test: Induction of change in Mitochondrial hypoxia-responsive domain protein level in iTRAQ-116 labelled cell wall fraction of drug-susceptible Aspergillus fumigatus KU80 delta-akuB at 0.12 ug/ml after 24 hrs in YPD medium by MS (MS/MS) analysis relative to control
[21] = system: Aspergillus fumigatus; test: Induction of change in ribosomal protein S9 protein level in iTRAQ114 labelled cell wall fraction of drug-susceptible Aspergillus fumigatus KU80 delta-akuB at 0.12 ug/ml after 24 hrs in YPD medium by MS (MS/MS) analysis relative to control
[22] = system: Aspergillus fumigatus; test: Induction of change in Mitochondrial hypoxia-responsive domain protein level in iTRAQ114 labelled cell wall fraction of drug-resistant Aspergillus fumigatus EMFR-S678P at 0.12 ug/ml after 24 hrs in YPD medium by MS (MS/MS) analysis relative to control
[23] = system: Aspergillus fumigatus; test: Induction of change in cobalamin-independent methionine synthase MetH/D protein level in iTRAQ-116 labelled secreted fraction of drug-susceptible Aspergillus fumigatus KU80 delta-akuB at 0.12 ug/ml after 48 hrs in YPD medium by MS (MS/MS) analysis relative to control
[24] = system: Aspergillus fumigatus; test: Induction of change in ThiJ/PfpI family protein level in iTRAQ-118 labelled cell wall fraction of drug-susceptible Aspergillus fumigatus KU80 delta-akuB at 0.12 ug/ml after 24 hrs in YPD medium by MS (MS/MS) analysis relative to control
[25] = system: Aspergillus fumigatus; test: Induction of change in transaldolase protein level in iTRAQ114 labelled secreted fraction of drug-resistant Aspergillus fumigatus EMFR-S678P at 0.12 ug/ml after 24 hrs in YPD medium by MS (MS/MS) analysis relative to control

CC[C@H](C)C[C@H](C)CCCCCCCCC(=O)N[C@H]1C[C@@H](O)[C@@H](NCCN)NC(=O)[C@@H]2[C@@H](O)CCN2C(=O)[C@H]([C@H](O)CCN)NC(=O)[C@H]([C@H](O)[C@@H](O)c2ccc(O)cc2)NC(=O)[C@@H]2C[C@@H](O)CN2C(=O)[C@H]([C@@H](C)O)NC1=O [CASPOFUNGIN]
fold change (FC) [1]: 3.9 | fold change (FC) [2]: 2.1 | fold change (FC) [3]: 1.7 | fold change (FC) [4]: 1.52 | fold change (FC) [5]: 1.7 | fold change (FC) [6]: 1.7 | fold change (FC) [7]: 1.23 | fold change (FC) [8]: 3.6 | fold change (FC) [9]: -1.32 | fold change (FC) [10]: -1.15 | fold change (FC) [11]: 1.9 | fold change (FC) [12]: -3 | fold change (FC) [13]: 2.5 | fold change (FC) [14]: 1.07 | fold change (FC) [15]: -2 | fold change (FC) [16]: 3.3 | fold change (FC) [17]: -6.5 | fold change (FC) [18]: -1.5 | fold change (FC) [19]: 2 | fold change (FC) [20]: -16 | fold change (FC) [21]: 1.7 | fold change (FC) [22]: 1.15 | fold change (FC) [23]: -2.1 | fold change (FC) [24]: -4.3 | fold change (FC) [25]: -1.41
